Assay results: publication PMC12040169 (PLOS Biology, 2025)
This is one part of the list.

The compounds below were run on T1, CTL2-GFP (C. trachomatis L2/434/Bu, GFP-expressing). Conditions: bulk GFP, single well; 28.5 h, 10 µM; inhibitor.
T1 construct: L2/434/Bu, GFP-expressing
Design: species or system HeLa; Intracellular C. trachomatis growth in HeLa cells, bulk GFP fluorescence relative to DMSO

In order of rising “% of control remaining” value:
1. CC(C)(C)c1csc(NCc2c(O)ccc3ccccc23)n1 [CBK078381]  54.5508%
2. O=C(Nc1nnc(C2CCCCC2)s1)c1ccccc1I [CBK057918]  82.2081%
3. Cn1c(C(=O)OCC(=O)NC(C)(C)C)cc2occc21 [CBK284015]  83.6663%
4. O=C(Nc1ccccc1N1CCNCC1)C1CCC1 [CBK004755T]  90.0549%
5. CC(Oc1cccc(Cl)c1)n1cnnc1 (stereo not drawn) [CBK022246]  92.7548%
6. COc1ccc(S(=O)(=O)N(CC(=O)N2CCC(C(N)=O)CC2)c2ccccc2)cc1 [CBK265301]  93.1184%
7. CCOc1cc(/C=C2\SC(=N)NC2=O)ccc1OC(=O)c1cccs1 [CBK265510]  94.4177%
8. COc1ccccc1C1(NC(=O)Cn2nc(C)cc2C)CCCC1 [CBK283573]  96.0143%
9. CSc1ccc(-c2nccnc2OCCC(C)C)cc1 [CBK106802]  96.221%
10. Cc1ccc(CNC(=O)c2cnoc2-c2ccc(Br)cc2)cc1F [CBK154896]  97.1364%
11. COc1ccccc1N1CCN(CC(=O)Nc2cc(Cl)ccc2C)CC1 [CBK270087]  97.6439%
12. Cc1ccc(NC(=O)c2ccccc2NS(=O)(=O)c2cccc(C(=O)O)c2)cc1 [CBK296695]  99.4209%
13. CN1CCN(C(=O)c2ccc(-c3ccccc3)nc2NCCc2ccccn2)CC1 [CBK076550]  100%
14. COc1cc(CN2CCC(N3CCN(c4ccccc4)CC3)CC2)ccc1OCc1ccccc1 [CBK264655G]  100%
15. O=C1/C(=C/c2c(NCCCn3ccnc3)nc3ccccn3c2=O)SC(=S)N1CC1CCCO1 (stereo not drawn) [CBK111310]  100%
16. O=[N+]([O-])c1cc(Br)cc(/C=N/Nc2nc3ccccc3[nH]2)c1O [CBK263486]  100%
17. CC1(C)CC(=O)c2sc(NC(=O)c3cccc(C(F)(F)F)c3)nc2C1 [CBK019941]  100.099%
18. c1ccc(N2CCN(c3cncc(-c4ccc5ccccc5c4)n3)CC2)nc1 [CBK066104]  100.437%
19. CCOC(=O)c1nc(-c2ccccc2)sc1C(C)=O [CBK067739]  101.155%
20. COc1cccc(-c2cnc3[nH]c(=O)n(CCCO)c3n2)c1 [CBK065036]  101.508%
21. CC(CSSCC(C)C(=O)O)C(=O)O (stereo not drawn) [CBK260940]  103.067%
22. CCOc1ccc(NC(=O)CCc2ncc(C(C)(C)C)o2)c(C)c1 [CBK306021]  104.388%
23. Cn1c(=O)c2c(=S)[nH]c(-c3ccccc3)nc2n(C)c1=O [CBK288422]  105.764%
24. O=C(NCCOc1ccccc1)NC(=O)C1CCNCC1 [CBK088187T]  106.022%
25. Cc1ccc(C(=O)CC(C(=O)O)P(=O)(c2ccccc2)c2ccccc2)cc1 (stereo not drawn) [CBK265022]  107.036%
26. Cc1noc(C)c1CN1CC2CCN(c3ccccc3)C2C1 (stereo not drawn) [CBK304847]  107.085%
27. CCNc1cncc(-c2cncc(OC)c2)n1 [CBK065366]  107.466%
28. CS(=O)(=O)Nc1nccnc1OC1CCN(CCCO)CC1 [CBK084275]  108.41%
29. CS(=O)(=O)Nc1nccnc1N1CCNCC1 [CBK074045T]  109.085%
30. COc1nc(N)nc(C/C(=N\NC(=O)c2cccnc2)C2CC2)n1 [CBK019872]  109.85%
31. Cc1ccc2[nH]c(CN3CCC(O)C3)cc(=O)c2c1 (stereo not drawn) [CBK307690]  109.922%
32. O=C(Nc1cccc(N2CCNCC2)c1)c1ccnc2ccccc12 [CBK029416T]  111.03%
33. CN1C(C(=O)O)=CC(c2ccc(F)cc2)=NS1(=O)=O [CBK287016]  111.371%
34. CN(C)CCNCCOc1cccc([N+](=O)[O-])c1 [CBK267803C]  111.397%
35. CC(NC(=O)Nc1ccc(C(=O)NC(C)(C)C)cc1)c1cccc(Cl)c1 (stereo not drawn) [CBK298265]  111.51%
36. O=c1[nH]cc(-c2ccc(F)cc2)cc1CNCc1ccccc1F [CBK284696]  112.794%
37. COc1ccc([C@H]2CN(Cc3ccccc3)[C@@H]3CCN(C(=O)c4ccccc4F)C[C@H]23)cc1 [CBK285542]  113.205%
38. Cc1nc(-c2cccnc2)[nH]c(=O)c1CC(=O)N(C)C1CCCC1 [CBK304907]  113.211%
39. COc1ccc(-c2cc(C(=O)N[C@@H](C)c3ccccc3)cnc2-c2cccc(C)c2)cc1 [CBK036635]  113.474%
40. CC(C)CC(=O)N1C[C@H]2NC(=O)c3ccccc3C(=O)[C@@]2(C)C1 [CBK281659]  114.474%
41. N#Cc1ccc(C(=O)N2C[C@@H]3C[C@H](C2)c2ccc(-c4cccc(C#N)c4)c(=O)n2C3)cc1 [CBK289187]  115.099%
42. NC(=O)c1ccc(NC(=O)N2CCCCC2CO)cc1 (stereo not drawn) [CBK156185]  115.909%
43. COc1ccccc1CN(CC(C)(C)CN)C(=O)NC1C[C@H]1c1ccccc1 (stereo partly drawn) [CBK002424C]  116.846%
44. O=C(O)CCCC(=O)NC12CC3CC(CC(C3)C1)C2 [CBK286958]  117.643%
45. Nc1ncnc(Nc2cccc(C(F)(F)F)c2)n1 [CBK017403]  117.696%
46. O=C(Nc1cccc(O)c1)c1ccc2c(c1)C(=O)N(Cc1ccco1)C2=O [CBK268640]  118.185%
47. CSc1nncc(-c2ccc(Cl)cc2)n1 [CBK028747]  118.985%
48. Cc1cc2c(s1)c1cnn(CC(=O)NC(C)C)c(=O)c1n2C [CBK284155]  119.104%
49. O=C(O)CCC(=O)c1cccc([N+](=O)[O-])c1 [CBK263681]  121.128%
50. CC(C)CNC(=O)N1CCN(Cc2ccccc2)CC1 [CBK155644]  121.32%
51. O=C(c1cncnc1)N1CCC2(CCN(Cc3ccccc3)CC2)C1 [CBK136782]  122.238%
52. CC(C)c1ccc(SCCc2ccccn2)cc1 [CBK026575C]  123.813%
53. CC(C)(C)OC(=O)N1CCCC2(CCCN(C(=O)c3ccco3)C2)C1 (stereo not drawn) [CBK284463]  127.641%
54. O=C(OCc1ccc([N+](=O)[O-])cc1)C1CCN(S(=O)(=O)c2cccc3cccnc23)CC1 [CBK264430]  128.625%
55. CCn1c(C)nnc1SCCNC(=O)c1cnc(N(C)C)nc1C [CBK307135]  130.742%
56. OC[C@H]1O[C@@H](n2cnc3c(Cl)nccc32)C[C@H]1O [CBK201273]  131.722%
57. O=S(=O)(NCc1ccco1)N1CCOCC1 [CBK268749]  132.214%
58. Cc1nc(CC(=O)N2CCC[C@@H]3NC(=O)c4ccccc4OCCCCC[C@@H]32)cs1 [CBK292113]  132.517%
59. Nc1nnc(Sc2nc3ccccc3nc2N2CCCC2)s1 [CBK093750]  134.267%
60. Cc1ccc(-c2csc3ncnc(SCc4csc(C)n4)c23)cc1 [CBK267244]  135.359%
61. CNC(=O)c1ccc(-n2ccnc2)c(-n2cccc2)c1 [CBK282461]  135.42%
62. Cn1c(=O)c2c(ncn2CC(=O)Nc2cccc3ccccc23)n(C)c1=O [CBK133515]  136.475%
63. O=C(C[C@@H]1CCNC[C@@H]1Cc1cc(CN2CCCCC2)on1)N1CCCCC1 [CBK289153]  137.394%
64. Cc1ccc(CNCCNCCO)s1 [CBK278168C]  137.775%
65. CCc1nn(CC(=O)N2CCCC2)c(=O)c2cc3ccsc3n12 [CBK284120]  139.921%
66. Cc1cccc(-c2csc3c(=O)[nH]c(N4CCC5(CC4)OCCO5)nc23)c1 [CBK291142]  142.568%
67. C#CCNC(=O)[C@H]1O[C@H](CCN2CCOCC2)CC[C@@H]1O [CBK288729]  144.752%
68. OCCCn1cc(CN2CCC(CO)C2)c2ccccc21 (stereo not drawn) [CBK282114]  146.671%
69. Oc1ccc(-c2cccc(N3CCN(c4ccccn4)CC3)n2)cc1 [CBK037028]  147.369%
70. Cc1cc(C)n(C(C)Cn2cncc2-c2cn(C)nc2C)n1 (stereo not drawn) [CBK281792]  148.853%
71. COc1ccc2cc(C(=O)N3CCC(c4ccncc4)CC3)[nH]c2c1 [CBK283799]  149.95%
72. Cn1ccnc1C(NC(=O)c1cccnc1)c1ccc(F)c(F)c1 (stereo not drawn) [CBK283807]  150.21%
73. Cc1cccc2c3c([nH]c12)C1(CCCN(C/C=C\c2ccccc2)C1)N(C=O)CC3 (stereo not drawn) [CBK040265]  152.907%
74. COc1ccc(OCCNC(=O)c2ccc(-c3ccccc3C)nc2N2CCN(C(=O)c3ccco3)CC2)cc1 [CBK076207]  155.628%
75. Cn1c(SCCOc2ccccc2Cl)nnc1-c1ccncc1 [CBK265969]  157.31%
76. CCCN1CC(NS(=O)(=O)c2cc(OC)c(C)cc2OC)CC1=O (stereo not drawn) [CBK307036]  160.592%
77. Cc1ccc(-n2cccn2)cc1S(=O)(=O)N1CCNCC1C (stereo not drawn) [CBK307344]  161.804%
78. O=C(COc1cccc(Cl)c1)NNC(=S)Nc1ccccc1 [CBK267180]  162.71%
79. NS(=O)(=O)c1ccc(CCNCC2CCCCC2)cc1 [CBK288467]  174.692%
80. COC(=O)COc1ccc(Oc2nc(N(C)C)nc(N3CCOCC3)n2)nn1 [CBK267258]  184.184%
81. COCCCn1c(=O)[nH]c2ncc(-c3cc(OC)c(OC)c(OC)c3)nc21 [CBK064937]  200.789%
